Here are results for 62 molecules from PubChem BioAssay AID445 (National Center for Advancing Translational Sciences (NCATS), 2006).

Structures are written as SMILES. The list shows a part of the results. The main result of the screen is listed elsewhere. These columns were measured beside it and carry no call. Compounds called inactive in the main read-out are mostly missing here. Words in brackets tell the shape of the fitted curve; partial curves, single points and poor fits give uncertain potencies.

This experiment can be described thus: IkB Signaling. The conditions noted are these: ABC-DLBCL IkBa-CBG/CBR dual luciferase ratio (green luciferase fused to IkBa over red control in OCI-Ly3 lymphoma cells), 4 h. The gist of the method: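 Luminescence ratio of IκBα-fused green versus native red beetle luciferase in OCI-Ly3 cells, 4 h post-doxycycline with compound; red signal alone, scaled from basal (0%) to zero light (-100%), flagged nonspecific or cytotoxic effects.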

[1] abbreviates: measured here: control luc red channel unless noted.

One may read the AC50 as the midpoint of the concentration-response curve, whichever way the signal moves.

Regarding `CC(=O)c1c(C)[nH]c(C(=O)OCCCCN2C(=O)c3ccccc3C2=O)c1C`, the concentration at half-maximal activity (AC50) is, setting by setting: (measured here: IkB-luc green channel) 31.6 µM [falling, partial curve]; (measured here: control luc red channel) 10 µM [falling, partial curve].
Regarding `CCc1ccc(NC(=O)c2ccc(F)c(S(=O)(=O)NC3CCCCCC3)c2)cc1`, the half-maximal activity concentration (AC50) under setting [1] is 25.1 µM [falling, partial curve].
The same measure, in the same setting: as for `Cc1c(Cl)cccc1NC(=O)CN1C(=O)COc2ccc(S(=O)(=O)N3CCCCCC3)cc21`, the figure is 0.0794 µM [rising, full curve, poor fit]; as for `Cc1cc(C(F)F)n2nc(C(=O)Nc3cc(Cl)ccc3C)nc2n1`, 10 µM [rising, partial curve].
Take `CC1CCc2noc(NC(=O)c3ccccc3[N+](=O)[O-])c2C1` (stereo not drawn): the half-maximal activity concentration (AC50) under setting [1] was 25.1 µM [falling, single point].
Consider `Cc1cc(=O)n2[nH]c(-c3ccc(F)cc3)nc2n1`, for which the AC50 under setting [1] was 25.1 µM [falling, partial curve].
Regarding `CCc1nnc(NC(=O)CSc2nnc(CNc3ccc(Cl)cc3)o2)s1`, the AC50 under setting [1] was 39.8 µM [falling, single point].
Same read-out and setting: as for `Cn1c(SCC(=O)Nc2ccc(F)cc2)nnc1-c1cccnc1`, the figure is 5.01 µM [falling, partial curve]; as for `COc1ccc(C(=O)Oc2c(Sc3ccc(Cl)cc3)c(C)nn2C(C)(C)C)cc1OC`, 1.58 µM [falling, partial curve].
Take `COC(=O)c1cc(NC(=O)C2COc3ccccc3O2)ccc1Cl` (stereo not drawn): the half-maximal activity concentration (AC50) under setting [1] is 20 µM [falling, single point].
With `COc1ccc(NC(=O)CCCn2c(=O)c3cccn3c3ccccc32)c(OC)c1`, under setting [1], the half-maximal activity concentration (AC50) was 0.631 µM [rising, full curve].
`O=C(Cn1c(=O)c2ccccc2n(CC(=O)Nc2ccc(Cl)cc2)c1=O)NCCc1ccccc1`: the AC50 under setting [1] is 6.31 µM [falling, partial curve].
Regarding `CCOC(=O)c1c(C)[nH]c(CCC(=O)NCCCN2CCN(c3cc(Cl)ccc3C)CC2)c1C`, the AC50 under setting [1] was 31.6 µM [falling, single point].
With `Cc1c(CCNC(=O)Cc2ccc(F)cc2)sc2nc(-c3ccc(F)cc3)nn12`, under setting [1], the half-maximal activity concentration (AC50) is 10 µM [falling, single point].
For `CCOc1ccc(C(=O)Nc2cccc(OCc3cc(=O)n4ccccc4n3)c2)cc1`, the AC50 under setting [1] was 0.126 µM [falling, full curve].
Still for that read-out and setting: the result for `COC(=O)c1cc(COC(=O)c2ccc(OC)c(S(=O)(=O)N3CCCC3)c2)oc1C` reads 39.8 µM [falling, single point].
The same measure, in the same setting: the result for `CCOc1cccc(CNCCNC(=O)c2nonc2N)c1` reads 3.16 µM [rising, partial curve].
On the same count and under the same terms, as for `Cc1ccc(Cl)cc1-n1c(=O)c2sc3ccccc3c2n(CC(=O)NC2CCCCC2)c1=O`, the figure is 12.6 µM [falling, single point]; as for `Cc1cccc(C)c1NC(=O)c1nc(S(C)(=O)=O)ncc1N(Cc1ccc(F)cc1)Cc1ccco1`, 12.6 µM [falling, partial curve]; as for `COc1cccc(CNC(=O)CN2C(=O)CSc3c2c(C)nn3-c2ccccc2)c1OC`, 25.1 µM [falling, single point].
With `NC1=NC(c2ccccc2Cl)n2c(nc3ccccc32)N1` (stereo not drawn), the concentration at half-maximal activity (AC50) under setting [1] was 1.58 µM [falling, full curve].
For the molecule `Cc1cc(-c2ccc(C)c(S(=O)(=O)Nc3ccccc3C(F)(F)F)c2)on1`, under setting [1], the concentration at half-maximal activity (AC50) was 31.6 µM [falling, single point].
Take `COc1ccc(C(=O)N(Cc2ccc(N(C)C)cc2)Cc2ccco2)cc1Cl`: the AC50 under setting [1] was 31.6 µM [falling, partial curve].
As to `Cc1ccc(C)n1-c1c(C(=O)NCC(C)c2ccccc2)sc2ncccc12` (stereo not drawn), the half-maximal activity concentration (AC50) under setting [1] is 12.6 µM [falling, partial curve].
For the molecule `Cc1ccccc1-n1nnnc1SCc1ncc(-c2ccccc2)o1`, the AC50 under setting [1] is 31.6 µM [falling, partial curve].
The same measure, in the same setting: the result for `CC(C(=O)NCc1ccccc1Cl)n1ccc2cc(S(=O)(=O)N3CCCCC3)ccc21` (stereo not drawn) reads 10 µM [falling, partial curve]; that for `Cc1ccc(-n2ncc(C(=O)NCCCN3CCCCC3)c2C2CCN(C(=O)OC(C)(C)C)CC2)c(C)c1`, 2 µM [falling, partial curve, poor fit].
On to `CCc1cccc(C)c1NC(=O)CCCn1c(=O)c2cccn2c2cccnc21`, for which, under setting [1], the concentration at half-maximal activity (AC50) is 3.98 µM [rising, partial curve, poor fit].
On to `Cc1[nH]nc2ncc(C(=O)c3ccccc3O)cc12`, for which the half-maximal activity concentration (AC50) under setting [1] is 15.8 µM [falling, partial curve].
In the case of `CCC1CCCCN1C(=O)COC(=O)c1cc2ccccc2cc1O` (stereo not drawn), under setting [1], the half-maximal activity concentration (AC50) was 25.1 µM [falling, partial curve].
Same read-out and setting: the result for `c1nc(N2CCC3(CC2)OCCO3)c2c3c(sc2n1)CCCC3` reads 20 µM [falling, partial curve]; that for `Cc1cccc(Cn2ccn(Cc3ccc(Cl)cc3)c(=O)c2=O)c1`, 31.6 µM [falling, single point]; that for `O=C(CSc1nc(-c2cccc(Cl)c2)nc2cc(=O)[nH]n12)Nc1ccccc1`, 25.1 µM [falling, partial curve].
As for `CCN(CC)C(=O)c1sc(NC(=O)c2nc3ncccn3n2)c(C(=O)OC)c1C`, under setting [1], the half-maximal activity concentration (AC50) was 3.16 µM [rising, partial curve] [measured here: IkB-luc green channel].
With `Cc1occc1C(=O)N1CCN(C(c2ccccc2)c2ccccc2)CC1`, the AC50 under setting [1] is 20 µM [falling, partial curve].
Regarding `Cc1oc2cc3c(C(=O)N4CCCCC4)c(C)oc3cc2c1C(=O)N1CCCCC1`, under setting [1], the AC50 is 25.1 µM [falling, partial curve].
Still for that read-out and setting: the result for `Cc1ccc(C2c3c(-c4cc(C)ccc4O)n[nH]c3C(=O)N2Cc2ccco2)cc1` (stereo not drawn) reads 39.8 µM [falling, single point]; that for `O=C(Nc1cccc2cccnc12)c1ccccc1[N+](=O)[O-]`, 0.398 µM [rising, full curve, poor fit].
`COc1cccc(Cn2c(=O)n(CC3CCC(C(=O)N4CCCCC4)CC3)c(=O)c3sccc32)c1` (stereo not drawn): the half-maximal activity concentration (AC50) under setting [1] is 39.8 µM [falling, single point].
For the molecule `COc1ccccc1N1CCN(C(=O)C2CCN(S(=O)(=O)c3c(C)noc3/C=C/c3ccc(C)cc3)CC2)CC1`, the AC50 under setting [1] is 25.1 µM [falling, single point].
For `Cc1ccc(C)n1NC(=O)c1cccs1`, the concentration at half-maximal activity (AC50) under setting [1] is 1.58 µM [falling, partial curve].
Turning to `Cc1cc(C)cc(-n2c(SCC(=O)NCc3ccco3)nc3c([nH]c4ccccc43)c2=O)c1`, the half-maximal activity concentration (AC50) under setting [1] is 1 µM [rising, partial curve].
With `COc1cccc(NC(=O)CSc2nnc(COc3ccc(Cl)cc3)o2)c1`, the half-maximal activity concentration (AC50) under setting [1] was 12.6 µM [falling, partial curve].
Consider `CCOC(=O)c1cc(-c2ccc(C)cc2)n(CCC(=O)Nc2nc3c(C)cccc3s2)c1C`, for which the concentration at half-maximal activity (AC50) under setting [1] was 3.16 µM [falling, partial curve].
Regarding `COc1ccc(-c2ccc(-c3noc(-c4ccccc4)n3)c(OC)n2)cc1`, the AC50 under setting [1] is 2.51 µM [falling, full curve, poor fit].
The same measure, in the same setting: as for `Cc1ccc2c(c1)c(=O)c1ccccc1n2CCCC(=O)Nc1ccc(C)c(F)c1`, the figure is 3.16 µM [falling, full curve].
With `CCCCCC(=O)N1c2ccccc2C(C)(c2ccccc2)CC1(C)C` (stereo not drawn), under setting [1], the AC50 is 12.6 µM [falling, partial curve, poor fit].
For `COc1ccc(C(=O)Oc2ccc3c(c2)OCO3)cc1OC`, the half-maximal activity concentration (AC50) under setting [1] is 1.26 µM [rising, partial curve].
With `COc1ccc(Cn2c(C(=O)O)c(CNCC(C)c3ccccc3)c3ccc(OC)cc32)cc1` (stereo not drawn), under setting [1], the half-maximal activity concentration (AC50) is 15.8 µM [falling, single point].
As for `Cc1ccc(C)c(N2CCN(C(=O)Nc3cn(CC(C)C)c(=O)c4ccccc34)CC2)c1`, under setting [1], the concentration at half-maximal activity (AC50) is 25.1 µM [falling, single point].
The same measure, in the same setting: the result for `O=c1c2ccccc2nc(SCc2cccc(F)c2)n1Cc1ccco1` reads 10 µM [falling, partial curve]; that for `Cc1cccc(N2CCN(S(=O)(=O)c3ccc4c(c3)C(C(C)C)C(=O)N4)CC2)c1C` (stereo not drawn), 12.6 µM [falling, partial curve]; that for `Cc1ccc(-c2nnc(SCC(=O)c3ccc(Cl)cc3)n2-c2ccccc2)cc1`, 0.794 µM [rising, full curve, poor fit].
Turning to `COc1cccc(CN2CCCN(CC(=O)Nc3ccc4c(c3)OCCO4)S2(=O)=O)c1`, the AC50 under setting [1] was 15.8 µM [falling, partial curve].
Same read-out and setting: the result for `Cc1nc2nc(NC(=O)c3ccc(C(C)(C)C)cc3)[nH]n2c(=O)c1Cl` reads 12.6 µM [falling, partial curve].
In the case of `Cc1oc(-c2ccccc2F)nc1CSCC(=O)N1CCN(c2ccccc2)CC1`, the AC50 under setting [1] was 20 µM [falling, partial curve].
Consider `c1ccc(N(c2ccccc2)c2nc(-n3ccnc3)nc(-n3ccnc3)n2)cc1`, for which, under setting [1], the AC50 was 10 µM [falling, partial curve].
The same measure, in the same setting: the result for `O=C(Nc1cccc(O)c1)c1cc2nc(-c3ccc(Br)cc3)cc(C(F)(F)F)n2n1` reads 0.631 µM [falling, full curve]; that for `COC(=O)CN(n1cnnc1)S(=O)(=O)c1ccccc1`, 25.1 µM [rising, partial curve] [measured here: IkB-luc green channel].
As to `COc1ccc(N2CCN(C(=O)CSc3c4c(nc5ccc(Cl)cc35)CCCC4)CC2)cc1`, under setting [1], the AC50 was 10 µM [falling, partial curve].
For the molecule `COc1ccccc1-c1ccc(C(=O)O)o1`, the AC50 under setting [1] is 5.01 µM [falling, full curve, poor fit].
With `Cc1ccccc1CNc1nc(N(C)C)nc2c1cnn2C`, the AC50 under setting [1] was 20 µM [falling, single point].
